# Molecular target: KIR3DL1*001 (Homo sapiens, UniProt P43629)
# Chains of the proteins cited; added tags and fusions are not shown. Residues count along the entry.
# UniProt P43629, 22-320: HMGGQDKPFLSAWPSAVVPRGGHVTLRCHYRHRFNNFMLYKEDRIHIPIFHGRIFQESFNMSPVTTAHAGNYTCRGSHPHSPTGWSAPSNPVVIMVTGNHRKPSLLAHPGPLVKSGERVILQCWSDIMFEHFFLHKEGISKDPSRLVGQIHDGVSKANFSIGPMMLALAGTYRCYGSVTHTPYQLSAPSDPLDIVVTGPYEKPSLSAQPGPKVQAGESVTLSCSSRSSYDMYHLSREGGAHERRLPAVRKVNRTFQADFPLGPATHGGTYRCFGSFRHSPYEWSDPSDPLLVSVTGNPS
# Conditions: ternary complex KIR3DL1*001–HLA-B*57:01–peptide
sequence,measurement,value
TSNLQEQIGW [T3N],direct contacts between KIR3DL1 and peptide,two contacts
